Assays:
[1] = tested on: primary rat hepatocytes; test: Hepatotoxicity in primary rat hepatocytes (MTT cell viability, LDH release); settings: 96 h
Procedure: (§1) Another subset of experimental rats (CON, HFD and DM rats) were used for the primary rat hepatocytes isolation. […] Primary hepatocytes were isolated from experimental rats in a modified two-step collagenase perfusion method as previously reported. An aliquot of the hepatocyte suspension (at a density of 2.5 × 10^5/ml) was seeded in collagen-precoated plates. Following 4-h incubation, the medium was replaced with 500 μl fresh cultured medium. Twenty-four hours after plating, the medium was removed and the hepatocytes were overlaid with BD matrigel (0.25 mg/ml) in feeding medium (DMEM containing […] dexamethasone and 1% ITS) and cultured for another 24 h at 37 °C in a humidified atmosphere containing 5% CO2 for following experiments.
(§2) ROS generation was simultaneously measured using DCFH-DA as a fluorescent probe.

[2] = tested on: primary rat hepatocytes; test: ROS generation in primary rat hepatocytes (DCFH-DA probe); format: cell-based; settings: primary rat hepatocytes, 2, 10 and 30 μM, 96 h
Procedure: as §1, §2

[3] = tested on: diabetic rats; settings: DM-AM: 20 mg/kg, 10 days
[4] = in vivo; settings: male, rat, po, 40 mg/kg

Which results are given for `CC(C)c1c(C(=O)Nc2ccccc2)c(-c2ccccc2)c(-c2ccc(F)cc2)n1CC[C@@H](O)C[C@@H](O)CC(=O)O` [atorvastatin, Atorvastatin calcium]?
hepatotoxicity in primary hepatocytes of CON rats ([1]; only at high concentration (30 μM)): obvious hepatotoxicity; decrease of cell viability compared with vehicle treatment ([1]; primary hepatocytes of DM rats, 30 μM): 50%; generation of ROS [2]: concentration-dependently increased; level of GSSG/T-GSH in liver compared with DM rats [3]: significant increase; AUC ([4]; AUC): 1.35 µg·h/mL; Cmax ([4]; Cmax): 0.194 ± 0.0249 µg/mL

— publication PMC5021965 (Scientific Reports, 2016)
